The values below come from article PMC11266262.

These are yes or no findings as the source states them, for the method shown. In cells and extracts the contact can be indirect. Some binding calls cover weakened binding; strength is not graded here.

Experiment [1] has as its target T1, Programmed cell death ligand 2 (PD-L2), exogenous (UniProt Q9BQ51).
T1 sequence: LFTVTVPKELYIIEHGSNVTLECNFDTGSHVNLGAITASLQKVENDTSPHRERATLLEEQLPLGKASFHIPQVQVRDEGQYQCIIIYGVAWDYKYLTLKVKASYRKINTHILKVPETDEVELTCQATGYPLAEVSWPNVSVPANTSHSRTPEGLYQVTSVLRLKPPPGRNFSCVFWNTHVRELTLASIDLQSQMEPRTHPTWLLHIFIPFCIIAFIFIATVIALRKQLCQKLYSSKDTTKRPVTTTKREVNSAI
Description: co-IP; lysate of PD-L2-overexpressing H1975 and H460 cells in immunoprecipitation lysis buffer; anti-PD-L2 antibody with protein A/G magnetic beads at 4°C overnight; 5 washes; western blot for RGMB.

Experiment [2] deals with T1, Programmed cell death ligand 2 (PD-L2), exogenous. Description: proximity ligation; Duolink in situ PLA in fixed H1975 and H460 cells 24 h after transfection with exogenous PD-L2 plasmid; rabbit anti-RGMB and mouse anti-PD-L2 antibodies (1:200); confocal microscopy.

B1: Repulsive guidance molecule B (RGMB) (receptor, UniProt Q6NW40 46-413)
chain: GDCQQPAQCRIQKCTTDFVSLTSHLNSAVDGFDSEFCKALRAYAGCTQRTSKACRGNLVYHSAVLGISDLMSQRNCSKDGPTSSTNPEVTHDPCNYHSHAGAREHRRGDQNPPSYLFCGLFGDPHLRTFKDNFQTCKVEGAWPLIDNNYLSVQVTNVPVVPGSSATATNKITIIFKAHHECTDQKVYQAVTDDLPAAFVDGTTSGGDSDAKSLRIVERESGHYVEMHARYIGTTVFVRQVGRYLTLAIRMPEDLAMSYEESQDLQLCVNGCPLSERIDDGQGQVSAILGHSLPRTSLVQAWPGYTLETANTQCHEKMPVKDIYFQSCVFDLLTTGDANFTAAAHSALEDVEALHPRKERWHIFPSSGN
B1: the binding result in experiment [1] and in experiment [2] was “binds” each time.
